# Measurements reported in PubChem BioAssay AID720505 (Drosophila RNAi Screening Center, 2013).
# Screen: 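Genes needed for store-operated calcium entry in fly cells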 (primary screen)
# System: Drosophila S2R+ cells
# Knock-down reagent: long dsRNA against Drosophila genes
# Treatment: thapsigargin (2 µM) in calcium-free buffer to empty internal stores, then 2 mM calcium added back
# Detection: 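Stores emptied by 2 µM thapsigargin without calcium, then 2 mM calcium re-added; fluo-4 fluorescence followed by FLIPR in 384-well plates, per-well averaged endpoint, raw; two screen passes, some wells retested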
# Scale: calcium signal and retest calcium signal: higher = more calcium entry after store depletion
# Active means: 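About 1500 genes called as lowering calcium entry, by varying amounts, judged against per-plate control wells with STIM1 as positive and Rho1 as negative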
# Meaning of the calls: active = called as lowering calcium entry; inactive = not called
# The deposit covers about 20,000 reagents; below is an unselected part of those that have a named target and a result. Of all reagents, about 2,100 (10%) are marked active. 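Raw plate signals without normalisation; calls rest on control-based scores that were not deposited; replicate 2 separates called from uncalled poorly.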 No sequences are given here. The record does not give: the amount of reagent, the time to read-out.
gene knocked down,amplicon,"calcium signal, replicate 1","calcium signal, replicate 2","retest calcium signal, replicate 1","retest calcium signal, replicate 2",Call
CG7849 (GeneID 35537),DRSC04895,121,157,,,inactive
Cdc5 (GeneID 38062),DRSC08577,120,77.9,,,inactive
Tmtc3 (GeneID 37401),DRSC04444,167,90.2,,,inactive
HPS1 (GeneID 36656),DRSC06195,168,148,,,inactive
CRIF (GeneID 40395),DRSC11811,82.7,120,,,inactive
CG14621 (GeneID 33128),DRSC20635,96.6,93.2,,,inactive
Pgant3 (GeneID 35627),DRSC05942,193,93.6,,,inactive
Pax (GeneID 35215),DRSC01703,158,90.7,,,inactive
Pax (GeneID 35215),DRSC02651,90.6,156,,,inactive
Pax (GeneID 35215),DRSC02652,179,91.1,,,inactive
CG12107 (GeneID 35712),DRSC06102,113,74.7,,,inactive
SmF (GeneID 36314),DRSC07397,66.7,87.2,,,active
RfC4 (GeneID 38492),DRSC08691,66.3,142,,,active
CG12170 (GeneID 40692),DRSC12199,148,136,124,101,inactive
CG33299 (GeneID 2768912),DRSC01085,112,86.2,,,inactive
CG32445 (GeneID 261603),DRSC11678,88.4,163,,,inactive
CG10492 (GeneID 35177),DRSC02064,124,149,,,inactive
Dh44 (GeneID 41170),DRSC16409,130,109,,,inactive
CG31269 (GeneID 318653),DRSC15744,164,173,,,inactive
scny (GeneID 38648),DRSC10509,76.8,145,,,inactive
scny (GeneID 38648),DRSC10510,128,90.4,,,inactive
scny (GeneID 38648),DRSC23229,99.4,154,,,inactive

Laid out differently: 5 of the entries above.
{"gene knocked down": "CG10492 (GeneID 35177)", "amplicon": "DRSC02064", "calcium signal, replicate 1": 124, "calcium signal, replicate 2": 149, "Call": "inactive"}
{"gene knocked down": "Dh44 (GeneID 41170)", "amplicon": "DRSC16409", "calcium signal, replicate 1": 130, "calcium signal, replicate 2": 109, "Call": "inactive"}
{"gene knocked down": "CG31269 (GeneID 318653)", "amplicon": "DRSC15744", "calcium signal, replicate 1": 164, "calcium signal, replicate 2": 173, "Call": "inactive"}
{"gene knocked down": "scny (GeneID 38648)", "amplicon": "DRSC10509", "calcium signal, replicate 1": 76.8, "calcium signal, replicate 2": 145, "Call": "inactive"}
{"gene knocked down": "scny (GeneID 38648)", "amplicon": "DRSC10510", "calcium signal, replicate 1": 128, "calcium signal, replicate 2": 90.4, "Call": "inactive"}

The listing continues.
gene knocked down,amplicon,"calcium signal, replicate 1","calcium signal, replicate 2","retest calcium signal, replicate 1","retest calcium signal, replicate 2",Call
CG13566 (GeneID 37813),DRSC04203,123,227,,,inactive
CG17928 (GeneID 35009),DRSC02644,74,156,,,active
CG15482 (GeneID 34717),DRSC02492,81.1,109,,,inactive
PIG-L (GeneID 42388),DRSC15577,130,87.8,,,inactive
gprs (GeneID 36862),DRSC06761,131,142,,,inactive
Hsp60A (GeneID 32045),DRSC20254,122,69.2,,,inactive
dsd (GeneID 43315),DRSC15850,121,91.3,,,inactive
Rpn12 (GeneID 39845),DRSC11275,89,135,,,inactive
CycK (GeneID 49816),DRSC03714,153,84.7,,,inactive
CG14763 (GeneID 35757),DRSC06497,92.1,109,,,inactive
tei (GeneID 36521),DRSC07616,112,183,,,inactive
CG16826 (GeneID 34741),DRSC02527,102,106,,,inactive
